# Primary screen of a compound library

Amino acid sequences for entries named in this document (tags omitted). Residues count along the entry.
UniProt P9WPC5, whole entry: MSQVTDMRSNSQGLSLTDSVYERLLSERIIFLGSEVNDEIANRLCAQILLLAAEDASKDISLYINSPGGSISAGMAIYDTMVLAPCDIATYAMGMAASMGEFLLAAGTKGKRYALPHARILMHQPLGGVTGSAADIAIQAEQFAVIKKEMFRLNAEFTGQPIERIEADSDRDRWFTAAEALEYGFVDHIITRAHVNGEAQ
UniProt P9WPC3, whole entry partner: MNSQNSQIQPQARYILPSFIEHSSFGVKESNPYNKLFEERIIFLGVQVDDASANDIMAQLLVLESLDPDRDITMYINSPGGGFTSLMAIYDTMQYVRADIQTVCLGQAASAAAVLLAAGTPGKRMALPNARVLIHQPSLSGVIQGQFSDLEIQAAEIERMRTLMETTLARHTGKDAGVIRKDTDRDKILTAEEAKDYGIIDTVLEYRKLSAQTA
UniProt P9WFT3, whole entry: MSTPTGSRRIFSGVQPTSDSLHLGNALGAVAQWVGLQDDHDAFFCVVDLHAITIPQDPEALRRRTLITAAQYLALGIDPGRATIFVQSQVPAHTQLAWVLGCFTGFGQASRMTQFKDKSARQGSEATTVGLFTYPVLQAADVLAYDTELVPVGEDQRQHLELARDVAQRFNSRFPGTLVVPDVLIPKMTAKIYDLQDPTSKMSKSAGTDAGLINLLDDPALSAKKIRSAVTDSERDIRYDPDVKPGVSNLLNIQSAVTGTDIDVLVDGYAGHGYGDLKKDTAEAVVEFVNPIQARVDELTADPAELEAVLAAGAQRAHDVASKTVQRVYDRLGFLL
UniProt I6X8D2, whole entry: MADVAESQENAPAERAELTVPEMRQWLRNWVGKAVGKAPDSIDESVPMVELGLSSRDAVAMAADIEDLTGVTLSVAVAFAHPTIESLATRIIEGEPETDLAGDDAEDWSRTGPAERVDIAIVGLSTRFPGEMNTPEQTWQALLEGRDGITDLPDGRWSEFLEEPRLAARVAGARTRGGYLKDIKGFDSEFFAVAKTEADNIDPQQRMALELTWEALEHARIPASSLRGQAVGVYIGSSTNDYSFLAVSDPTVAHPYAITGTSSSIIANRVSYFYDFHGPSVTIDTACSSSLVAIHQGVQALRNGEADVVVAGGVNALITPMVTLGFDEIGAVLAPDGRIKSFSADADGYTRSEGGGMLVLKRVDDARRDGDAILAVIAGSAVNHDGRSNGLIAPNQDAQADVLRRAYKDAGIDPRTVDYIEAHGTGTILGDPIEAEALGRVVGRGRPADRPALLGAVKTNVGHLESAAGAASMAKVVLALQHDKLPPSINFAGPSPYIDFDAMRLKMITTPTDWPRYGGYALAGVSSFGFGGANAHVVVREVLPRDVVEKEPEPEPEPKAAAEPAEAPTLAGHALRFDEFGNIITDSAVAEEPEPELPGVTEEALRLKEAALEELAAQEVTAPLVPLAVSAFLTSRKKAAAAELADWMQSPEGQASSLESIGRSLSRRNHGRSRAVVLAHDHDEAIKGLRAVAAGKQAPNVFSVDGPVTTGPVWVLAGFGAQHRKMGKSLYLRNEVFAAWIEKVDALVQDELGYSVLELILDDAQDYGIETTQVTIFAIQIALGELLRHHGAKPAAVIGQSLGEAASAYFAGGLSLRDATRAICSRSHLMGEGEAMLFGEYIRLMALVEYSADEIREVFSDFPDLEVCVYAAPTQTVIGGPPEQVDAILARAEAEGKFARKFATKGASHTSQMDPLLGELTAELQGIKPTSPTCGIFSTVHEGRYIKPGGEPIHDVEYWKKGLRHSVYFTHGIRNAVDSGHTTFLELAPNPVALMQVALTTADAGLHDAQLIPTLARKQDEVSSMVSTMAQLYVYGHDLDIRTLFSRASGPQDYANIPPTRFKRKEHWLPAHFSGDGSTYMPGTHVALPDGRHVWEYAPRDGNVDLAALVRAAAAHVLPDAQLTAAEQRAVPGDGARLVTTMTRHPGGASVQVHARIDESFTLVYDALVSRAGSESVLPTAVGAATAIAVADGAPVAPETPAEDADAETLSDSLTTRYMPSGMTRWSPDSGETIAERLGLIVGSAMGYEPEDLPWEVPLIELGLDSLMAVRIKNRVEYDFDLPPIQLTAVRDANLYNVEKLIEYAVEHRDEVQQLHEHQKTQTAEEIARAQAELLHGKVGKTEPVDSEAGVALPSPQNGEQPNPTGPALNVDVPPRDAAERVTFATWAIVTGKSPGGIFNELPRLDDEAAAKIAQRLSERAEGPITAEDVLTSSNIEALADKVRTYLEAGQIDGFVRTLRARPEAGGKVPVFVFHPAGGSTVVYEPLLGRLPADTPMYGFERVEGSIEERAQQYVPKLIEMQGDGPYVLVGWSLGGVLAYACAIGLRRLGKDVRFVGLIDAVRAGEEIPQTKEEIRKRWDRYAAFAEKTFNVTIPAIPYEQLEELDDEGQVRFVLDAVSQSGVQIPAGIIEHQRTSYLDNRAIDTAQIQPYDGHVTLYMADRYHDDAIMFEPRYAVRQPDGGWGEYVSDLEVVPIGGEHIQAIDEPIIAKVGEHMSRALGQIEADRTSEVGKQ
UniProt Q8IDJ8, 1-583: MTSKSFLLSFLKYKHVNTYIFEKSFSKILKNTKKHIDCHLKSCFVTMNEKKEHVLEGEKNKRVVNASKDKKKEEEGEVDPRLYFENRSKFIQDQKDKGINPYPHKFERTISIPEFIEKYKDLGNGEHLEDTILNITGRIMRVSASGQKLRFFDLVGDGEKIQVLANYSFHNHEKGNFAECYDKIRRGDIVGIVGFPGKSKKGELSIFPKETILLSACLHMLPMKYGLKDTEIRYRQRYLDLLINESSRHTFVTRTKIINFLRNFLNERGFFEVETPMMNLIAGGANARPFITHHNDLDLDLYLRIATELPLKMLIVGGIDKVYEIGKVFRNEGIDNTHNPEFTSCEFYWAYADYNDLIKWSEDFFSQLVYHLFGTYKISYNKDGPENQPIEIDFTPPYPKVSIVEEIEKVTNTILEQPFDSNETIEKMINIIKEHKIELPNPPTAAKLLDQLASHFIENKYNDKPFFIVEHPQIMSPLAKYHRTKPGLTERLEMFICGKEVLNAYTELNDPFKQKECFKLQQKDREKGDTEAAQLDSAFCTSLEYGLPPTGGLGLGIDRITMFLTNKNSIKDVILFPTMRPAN

Data taken from ChEMBL document CHEMBL3988442, “University of Dundee, Small-Polar-MMV Screening Library” (2021).

Results are given as percent effect.
The controls that fix the scale are not given in the record; negative values are as filed.
The compounds are a random part of those screened.
A dash means the value is not listed here; it may have been measured.

ClpP1P2: 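Protease assay of ClpP1P2, read by the AMC dye that it sets free. Target: ClpP1P2, Mycobacterium tuberculosis (UniProt P9WPC5 and UniProt P9WPC3). Compounds at 50 µM. Direction is inferred from only a few compounds that gave an IC50; most scored high, so higher reads as stronger inhibition. Most other retested compounds had strongly negative values. Size under these conditions: about 69,000 compounds, about 10 of them at 50% or above in at least one test.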
MtTrpRS: 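Enzyme assay of tryptophanyl-tRNA synthetase; the read-out is not stated. Target: Tryptophan-tRNA ligase, Mycobacterium tuberculosis (UniProt P9WFT3). Tested at 10 µM. Direction is not recorded; retested compounds ran higher, which suggests that high means inhibition. Of about 65,000 compounds tested this way, about 64 (0.098%) reached 50% or more in at least one test.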
Pks13 thioesterase: 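Polyketide synthase Pks13, Mycobacterium tuberculosis (UniProt I6X8D2). Enzyme assay of the thioesterase domain of polyketide synthase 13; the read-out is not stated. Tested at 30 µM. Higher reads as stronger inhibition (inferred from which compounds were picked for retests). About 67,000 compounds were tested under these conditions; 0.46% (about 300) showed 50% or more at least once.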
PfKRS1: 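Enzyme assay of the cytosolic lysyl-tRNA synthetase in 384-well plates, read by luminescence. Target: Lysine-tRNA ligase, Plasmodium falciparum 3D7 (UniProt Q8IDJ8). Concentration: 30 µM. Higher reads as stronger inhibition, judged from the few compounds that gave an IC50. Size under these conditions: about 69,000 compounds, about 49 of them at 50% or above in at least one test.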

SMILES,ClpP1P2,MtTrpRS,Pks13 thioesterase,PfKRS1
Cc1c(C(=O)NC(C)CC(=O)c2cccs2)cnn1C (stereo unspecified),-8.213%,3.456%,1.428%,-7.822%
CC(=O)Nc1cccc(C(=O)N2CCc3c(nc(N(C)C)[nH]c3=O)C2)c1,-11.16%,6.983%,11.09%,0.9824%
CCSCCC(C)N(C)C(=O)c1cc(C)no1 (stereo unspecified),-2.398%,0.7435%,-17.08%,3.766%
COCC(=O)N1CCC2(C1)c1ccccc1S(=O)(=O)N2CCC(C)C (stereo unspecified),-2.12%,-12.5%,-30.92%,-1.604%
Cc1n[nH]c(C2CN(Cc3nnc(C4CC4)n3C)CCO2)n1 (stereo unspecified),-10.32%,0.4068%,0.2203%,3.959%
Cc1nnsc1C(=O)N1CCCC(n2nnc3cc(F)ccc32)C1 (stereo unspecified),-5.448%,-,-3.874%,2.916%
Cc1cs/c(=N\C(=O)Cn2nc(N3CCOCC3)ccc2=O)[nH]1,-4.999%,-4.003%,-3.355%,-1.305%
O=C(NCC1CC1)[C@H]1C[C@H]2OCC[C@H]2N(Cc2ccsc2)C1,-13.71%,-2.205%,-10.31%,1.947%
COC1CCCN(C(=O)NCCCF)C1 (stereo unspecified),-13.58%,0.5711%,10.98%,-0.8018%
CCCc1nc(N2CCCCC2)c2c(n1)c(C)nn2CC,-39.52%,3.181%,-6.319%,-0.9832%
Cc1nn(C)c2cnn(Cc3ccc(C(=O)NCC4CCCO4)o3)c12 (stereo unspecified),-7.207%,-1.643%,-25.12%,-2.778%
CCc1ccc(S(=O)(=O)N2CCC3(CC(C(=O)NC)=NO3)C2)cc1 (stereo unspecified),-0.116%,-3.164%,-12.18%,-0.7837%
Cc1cc(CN(C)C(=O)C(c2cccnc2)N2CCOCC2)n[nH]1 (stereo unspecified),-2.583%,3.131%,-,5.899%
CC(C)Cc1nc(CN2CC(=O)N(C)c3ccccc3C2=O)no1,-7.546%,3.913%,-10.2%,6.166%
CN(Cc1cccc(OC(F)F)c1)Cc1nc2c(cnn2C)c(=O)[nH]1,-11.52%,9.252%,-11.75%,-0.2249%
COc1cc(Cl)ccc1C(=O)N1CCCC(c2cc(C)[nH]n2)C1 (stereo unspecified),-23.57%,0.1412%,-13.07%,0.06352%
COCCN(C(=O)c1ccn(-c2ccc(OC)cc2)n1)C(C)C(N)=O (stereo unspecified),-2.234%,-0.06325%,-5.564%,1.647%
CCc1nc2n(n1)CC(NCc1nc(C)ccc1O)CC2 (stereo unspecified),-1.531%,-2.436%,-25.97%,7.603%
N#Cc1cccc(S(=O)(=O)NC2CCN(CC(F)(F)F)C2)c1 (stereo unspecified),1.069%,-0.5083%,-7.919%,0.8098%
COc1cccc(-c2ccc3nc(C4CCN(C(C)=O)CC4)nn3c2)c1,-8.481%,-,6.866%,3.586%
C[C@@H]1CN(C2(C(=O)N3CC[C@H](O)C3)Cc3ccccc3C2)C[C@H](C)O1,-10.74%,-3.936%,-34.86%,1.997%
CNc1ncc(C(=O)N2CCOC(C(=O)NC3CCCC3)C2)cn1 (stereo unspecified),-6.508%,-5.21%,-40.06%,1.931%
COc1ccc2c(c1)CN(Cc1ccco1)C(=O)CCN2,9.922%,-,1.183%,7.991%
COCC1CN(C(=O)c2cccn2C)Cc2c1cnn2CC1CC1 (stereo unspecified),-2.843%,0.3984%,-60.74%,0.7498%
CCN(Cc1ccc2c(c1)OCO2)C(=O)NC(C)Cn1cccn1 (stereo unspecified),19.75%,-0.8793%,-8.556%,9.61%
O=C1NC2(CCN(CC(=O)N3CCOCC3)CC2)Nc2ccc(Br)cc21,-157.8%,-1.382%,2.159%,-0.6118%
OCc1cnc(Nc2ccccc2)nc1,8.798%,4.432%,-6.862%,-2.439%
COCCNC(=O)c1cc(C(C)C)nc(N2CCCCC2)n1,-2.715%,-2.202%,3.418%,7.069%
CCC1CN(Cc2nnc(C3CC3)o2)CCC(=O)N1Cc1ccccc1 (stereo unspecified),10.7%,1.72%,-11.17%,-4.936%
CNc1cc(N2CCCC2CNCc2cccc(C(N)=O)c2)ncn1 (stereo unspecified),-7.062%,4.713%,-35.47%,12.78%
Cc1ccc(N2CC[C@H]3C[C@@H](C(=O)N4CCOCC4)O[C@H]3C2)nn1,1.563%,1.831%,-29.44%,-1.479%
Cc1ccccc1SC1CCN(C(=O)[C@@H]2C[C@@H](N)CN2)CC1,-15.86%,-4.93%,-29.19%,3.848%
N#Cc1cccc(Cl)c1NC1CCN(CC(N)=O)CC1,-10.98%,3.342%,-1.867%,1.497%
Cc1cccc(CN2CCc3nnc(CN(C)C)n3CC2)n1,-9.325%,0%,-25.54%,3.196%
O=C(CCc1cc2n(n1)CCNC2)NCCS(=O)(=O)N1CCCC1,0.4153%,0.7322%,-6.227%,6.05%
Cc1nnsc1CN(C)C(=O)CN1CC2(CCNCC2)OC1=O,-6.018%,2.993%,-4.26%,1.82%
Cc1ccccc1C(C(=O)N(C)CCc1cn[nH]c1)N(C)C (stereo unspecified),-11.1%,0.4968%,-,-0.196%
Cc1cc(C)n(C2CN(c3ncnc4c3CCNCC4)C2)n1,-7.413%,-0.154%,-15.34%,1.741%
COCCN1CC[C@@H]2OC[C@H](C(=O)N(C)Cc3ccccn3)C[C@@H]2C1,-22.1%,-,1.727%,3.05%
Cc1cccnc1CC(C)Nc1nc(N)nc2c1CCNC2 (stereo unspecified),-10.91%,12.9%,-4.115%,-5.478%
COc1ccc(-n2ncc(C(C)NCc3cnc(SC)nc3)c2C)cc1 (stereo unspecified),-27.93%,-0.7236%,1.237%,0.1039%
Cn1cnc2c1CCN(Cc1csc(-c3ccccc3)n1)C2,-2.801%,6.952%,-14.99%,-3.407%
COc1ccc(C2=CCN(C(=O)CN(C)CC(N)=O)CC2)cc1,-8.929%,2.124%,-15.12%,7.288%
CCOCC1CN(C(=O)CC2=CCCCC2)Cc2nnn(C)c21 (stereo unspecified),-0.4301%,-7.768%,-3.336%,3.388%
O=C(O)[C@@H]1CCCN1c1nccc(Nc2ccccc2)n1,0.4454%,-,-16.84%,0.2283%
CNC(=O)CC1CC2(CCN(c3ncccn3)CC2)c2ccccc21 (stereo unspecified),6.044%,-4.299%,-25.93%,5.035%
CC(=O)N[C@@H]1CN(Cc2ccco2)C[C@H]1c1ccc(C)o1,0.3024%,-1.805%,-3.734%,3.182%
Cc1cc(C(=O)NC(C)c2nnn[nH]2)c2ccc(C)c(C)c2n1 (stereo unspecified),10.41%,-5.641%,-0.5996%,0.8466%

The first 3 entries again:

For Cc1c(C(=O)NC(C)CC(=O)c2cccs2)cnn1C (stereo unspecified) the result was ClpP1P2: -8.213%; MtTrpRS: 3.456%; Pks13 thioesterase: 1.428%; PfKRS1: -7.822%.
For CC(=O)Nc1cccc(C(=O)N2CCc3c(nc(N(C)C)[nH]c3=O)C2)c1 the result was ClpP1P2: -11.16%; MtTrpRS: 6.983%; Pks13 thioesterase: 11.09%; PfKRS1: 0.9824%.
For CCSCCC(C)N(C)C(=O)c1cc(C)no1 (stereo unspecified) the result was ClpP1P2: -2.398%; MtTrpRS: 0.7435%; Pks13 thioesterase: -17.08%; PfKRS1: 3.766%.